No constants are given. Whether binding was seen depends on the method and setting. Binding seen in cells or lysates may run through a third protein. These calls come from enrichment with a bait or labelling near it, and not all partners need be listed. Tags and fused reporters may be left off the sequences shown.

Chains of the proteins cited; added tags and fusions are not shown.
UniProt O94986: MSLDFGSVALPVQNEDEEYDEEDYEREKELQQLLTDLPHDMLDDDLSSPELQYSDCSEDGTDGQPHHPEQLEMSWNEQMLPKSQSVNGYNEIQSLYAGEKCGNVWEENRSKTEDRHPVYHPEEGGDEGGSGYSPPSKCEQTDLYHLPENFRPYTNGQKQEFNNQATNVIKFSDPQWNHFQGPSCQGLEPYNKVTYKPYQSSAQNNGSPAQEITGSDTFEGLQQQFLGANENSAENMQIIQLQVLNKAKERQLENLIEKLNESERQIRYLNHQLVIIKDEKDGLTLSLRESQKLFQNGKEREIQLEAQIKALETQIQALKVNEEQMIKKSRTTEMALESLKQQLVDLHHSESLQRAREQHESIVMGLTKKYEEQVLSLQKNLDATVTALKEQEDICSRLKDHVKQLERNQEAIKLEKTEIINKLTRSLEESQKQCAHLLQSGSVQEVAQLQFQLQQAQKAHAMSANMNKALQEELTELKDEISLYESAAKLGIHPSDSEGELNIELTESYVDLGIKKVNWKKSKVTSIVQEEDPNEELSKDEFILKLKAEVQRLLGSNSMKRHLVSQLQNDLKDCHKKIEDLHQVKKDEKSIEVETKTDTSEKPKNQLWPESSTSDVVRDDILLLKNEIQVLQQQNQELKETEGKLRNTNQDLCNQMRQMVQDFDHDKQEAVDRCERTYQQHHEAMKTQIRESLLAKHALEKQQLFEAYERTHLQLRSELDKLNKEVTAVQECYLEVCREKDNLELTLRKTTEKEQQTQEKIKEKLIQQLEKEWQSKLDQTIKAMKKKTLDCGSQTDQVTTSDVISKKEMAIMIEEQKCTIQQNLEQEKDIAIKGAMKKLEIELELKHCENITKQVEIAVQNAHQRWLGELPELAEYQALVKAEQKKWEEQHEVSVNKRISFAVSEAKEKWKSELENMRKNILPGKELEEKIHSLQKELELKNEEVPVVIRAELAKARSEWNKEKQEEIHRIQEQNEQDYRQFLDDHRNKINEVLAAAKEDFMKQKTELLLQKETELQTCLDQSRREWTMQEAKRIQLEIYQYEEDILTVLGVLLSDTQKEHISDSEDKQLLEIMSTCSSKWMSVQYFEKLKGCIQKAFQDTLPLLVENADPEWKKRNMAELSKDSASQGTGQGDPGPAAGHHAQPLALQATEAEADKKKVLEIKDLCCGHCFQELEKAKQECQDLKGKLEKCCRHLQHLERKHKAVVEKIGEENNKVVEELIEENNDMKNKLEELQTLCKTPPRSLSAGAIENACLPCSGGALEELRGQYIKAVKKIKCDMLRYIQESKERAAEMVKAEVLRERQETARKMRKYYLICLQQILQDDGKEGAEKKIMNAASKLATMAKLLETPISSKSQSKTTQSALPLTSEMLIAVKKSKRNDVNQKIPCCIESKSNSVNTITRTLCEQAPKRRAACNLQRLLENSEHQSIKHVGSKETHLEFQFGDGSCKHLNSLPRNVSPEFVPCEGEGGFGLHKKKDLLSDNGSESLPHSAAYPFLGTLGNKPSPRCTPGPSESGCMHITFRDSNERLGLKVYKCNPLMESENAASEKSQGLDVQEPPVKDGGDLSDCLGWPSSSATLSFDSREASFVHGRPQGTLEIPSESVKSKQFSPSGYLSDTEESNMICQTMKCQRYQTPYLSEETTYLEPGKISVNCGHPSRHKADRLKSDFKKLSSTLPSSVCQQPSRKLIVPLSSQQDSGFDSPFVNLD
UniProt Q9Y4B6: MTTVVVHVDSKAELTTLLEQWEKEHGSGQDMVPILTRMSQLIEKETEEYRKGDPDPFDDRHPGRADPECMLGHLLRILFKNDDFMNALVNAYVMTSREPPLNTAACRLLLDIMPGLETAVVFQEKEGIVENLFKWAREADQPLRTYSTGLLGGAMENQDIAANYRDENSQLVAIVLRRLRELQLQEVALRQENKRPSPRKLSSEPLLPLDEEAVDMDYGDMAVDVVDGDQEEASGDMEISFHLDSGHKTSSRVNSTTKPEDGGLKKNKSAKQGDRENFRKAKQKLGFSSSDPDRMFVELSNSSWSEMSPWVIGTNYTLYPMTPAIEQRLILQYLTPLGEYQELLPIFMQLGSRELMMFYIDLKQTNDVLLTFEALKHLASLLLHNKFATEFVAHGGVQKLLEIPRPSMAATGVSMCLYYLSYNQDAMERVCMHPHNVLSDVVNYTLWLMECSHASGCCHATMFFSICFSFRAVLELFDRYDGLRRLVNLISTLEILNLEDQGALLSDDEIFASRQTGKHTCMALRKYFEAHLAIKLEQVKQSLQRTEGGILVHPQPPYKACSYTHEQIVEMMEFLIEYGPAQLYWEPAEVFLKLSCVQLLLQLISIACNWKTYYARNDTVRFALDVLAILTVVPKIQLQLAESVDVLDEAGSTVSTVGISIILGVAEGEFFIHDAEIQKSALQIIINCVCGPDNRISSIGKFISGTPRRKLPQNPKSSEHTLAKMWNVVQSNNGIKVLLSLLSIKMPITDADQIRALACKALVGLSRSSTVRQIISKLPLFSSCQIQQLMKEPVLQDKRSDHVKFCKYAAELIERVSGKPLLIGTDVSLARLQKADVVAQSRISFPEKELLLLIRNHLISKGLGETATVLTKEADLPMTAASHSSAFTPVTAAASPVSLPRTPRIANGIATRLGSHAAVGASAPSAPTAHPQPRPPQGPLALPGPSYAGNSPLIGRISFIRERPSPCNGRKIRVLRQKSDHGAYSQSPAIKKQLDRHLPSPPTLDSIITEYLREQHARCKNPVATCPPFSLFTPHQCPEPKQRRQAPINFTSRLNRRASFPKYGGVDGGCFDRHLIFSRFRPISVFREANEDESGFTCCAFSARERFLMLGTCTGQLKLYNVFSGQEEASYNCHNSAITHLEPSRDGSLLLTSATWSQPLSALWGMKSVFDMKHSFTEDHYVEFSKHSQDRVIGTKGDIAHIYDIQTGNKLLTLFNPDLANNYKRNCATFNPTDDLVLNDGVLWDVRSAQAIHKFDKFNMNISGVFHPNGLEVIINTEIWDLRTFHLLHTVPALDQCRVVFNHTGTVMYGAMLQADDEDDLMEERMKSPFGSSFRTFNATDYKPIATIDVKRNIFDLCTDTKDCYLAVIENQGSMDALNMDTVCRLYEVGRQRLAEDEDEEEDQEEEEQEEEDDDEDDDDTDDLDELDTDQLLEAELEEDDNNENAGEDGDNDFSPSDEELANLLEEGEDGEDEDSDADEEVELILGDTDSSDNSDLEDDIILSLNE
UniProt Q96JK2: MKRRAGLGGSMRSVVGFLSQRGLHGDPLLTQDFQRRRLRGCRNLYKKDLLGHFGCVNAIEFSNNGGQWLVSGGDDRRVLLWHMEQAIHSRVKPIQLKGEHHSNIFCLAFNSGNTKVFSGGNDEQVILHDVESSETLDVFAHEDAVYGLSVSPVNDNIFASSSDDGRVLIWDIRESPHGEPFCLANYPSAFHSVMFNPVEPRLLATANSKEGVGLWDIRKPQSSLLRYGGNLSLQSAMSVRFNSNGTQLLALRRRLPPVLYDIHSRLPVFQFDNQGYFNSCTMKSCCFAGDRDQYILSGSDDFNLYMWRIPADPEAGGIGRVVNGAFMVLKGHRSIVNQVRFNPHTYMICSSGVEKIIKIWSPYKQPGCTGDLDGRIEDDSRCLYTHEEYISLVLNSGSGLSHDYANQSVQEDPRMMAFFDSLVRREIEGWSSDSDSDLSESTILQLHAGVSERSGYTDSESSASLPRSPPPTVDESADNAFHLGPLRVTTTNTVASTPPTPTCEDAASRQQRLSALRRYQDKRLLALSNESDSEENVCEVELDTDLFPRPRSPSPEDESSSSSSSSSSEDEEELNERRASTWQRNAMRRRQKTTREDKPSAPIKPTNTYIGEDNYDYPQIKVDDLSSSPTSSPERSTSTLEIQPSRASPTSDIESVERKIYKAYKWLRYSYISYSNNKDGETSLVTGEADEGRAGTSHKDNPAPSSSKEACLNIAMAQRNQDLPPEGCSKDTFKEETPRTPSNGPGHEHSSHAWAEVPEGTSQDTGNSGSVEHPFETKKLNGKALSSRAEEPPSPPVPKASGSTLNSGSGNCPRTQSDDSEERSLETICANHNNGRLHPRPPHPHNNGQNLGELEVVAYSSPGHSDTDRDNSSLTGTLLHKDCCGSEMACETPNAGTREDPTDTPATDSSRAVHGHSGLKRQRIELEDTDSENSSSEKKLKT
UniProt Q16531: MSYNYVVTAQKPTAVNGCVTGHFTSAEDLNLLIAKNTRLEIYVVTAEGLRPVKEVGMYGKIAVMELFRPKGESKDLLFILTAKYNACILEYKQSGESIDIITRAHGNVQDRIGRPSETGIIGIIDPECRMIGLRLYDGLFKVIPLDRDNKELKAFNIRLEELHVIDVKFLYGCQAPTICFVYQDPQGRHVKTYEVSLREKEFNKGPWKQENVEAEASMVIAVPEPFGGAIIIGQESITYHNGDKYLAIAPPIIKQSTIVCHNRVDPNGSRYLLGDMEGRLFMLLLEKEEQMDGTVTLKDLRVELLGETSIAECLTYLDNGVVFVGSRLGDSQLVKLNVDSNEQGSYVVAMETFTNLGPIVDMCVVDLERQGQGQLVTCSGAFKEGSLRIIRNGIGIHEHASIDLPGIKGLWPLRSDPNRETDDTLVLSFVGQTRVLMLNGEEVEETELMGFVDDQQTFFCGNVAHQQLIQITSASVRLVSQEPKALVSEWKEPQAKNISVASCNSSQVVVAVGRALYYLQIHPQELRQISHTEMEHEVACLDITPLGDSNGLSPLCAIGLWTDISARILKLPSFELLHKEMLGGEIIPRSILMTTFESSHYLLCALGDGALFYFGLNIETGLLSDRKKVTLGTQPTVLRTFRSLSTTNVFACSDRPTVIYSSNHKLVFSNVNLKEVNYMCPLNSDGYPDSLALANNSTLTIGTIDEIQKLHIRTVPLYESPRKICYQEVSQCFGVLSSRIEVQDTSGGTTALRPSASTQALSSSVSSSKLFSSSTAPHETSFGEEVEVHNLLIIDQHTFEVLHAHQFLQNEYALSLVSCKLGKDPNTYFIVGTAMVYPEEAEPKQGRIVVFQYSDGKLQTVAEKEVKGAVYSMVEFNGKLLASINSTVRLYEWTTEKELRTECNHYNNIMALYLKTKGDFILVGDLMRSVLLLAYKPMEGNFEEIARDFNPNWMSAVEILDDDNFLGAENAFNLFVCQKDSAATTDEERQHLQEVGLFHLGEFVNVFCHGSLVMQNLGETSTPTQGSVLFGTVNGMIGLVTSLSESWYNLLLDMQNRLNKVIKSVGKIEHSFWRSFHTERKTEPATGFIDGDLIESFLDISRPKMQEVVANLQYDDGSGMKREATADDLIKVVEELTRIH

Our source for the binding values is paper doi:10.1101/2023.09.13.555514.

The experiment concerns the target T1, Flag-PLK4 full length (wild type) (human) (UniProt O00444).
T1 sequence: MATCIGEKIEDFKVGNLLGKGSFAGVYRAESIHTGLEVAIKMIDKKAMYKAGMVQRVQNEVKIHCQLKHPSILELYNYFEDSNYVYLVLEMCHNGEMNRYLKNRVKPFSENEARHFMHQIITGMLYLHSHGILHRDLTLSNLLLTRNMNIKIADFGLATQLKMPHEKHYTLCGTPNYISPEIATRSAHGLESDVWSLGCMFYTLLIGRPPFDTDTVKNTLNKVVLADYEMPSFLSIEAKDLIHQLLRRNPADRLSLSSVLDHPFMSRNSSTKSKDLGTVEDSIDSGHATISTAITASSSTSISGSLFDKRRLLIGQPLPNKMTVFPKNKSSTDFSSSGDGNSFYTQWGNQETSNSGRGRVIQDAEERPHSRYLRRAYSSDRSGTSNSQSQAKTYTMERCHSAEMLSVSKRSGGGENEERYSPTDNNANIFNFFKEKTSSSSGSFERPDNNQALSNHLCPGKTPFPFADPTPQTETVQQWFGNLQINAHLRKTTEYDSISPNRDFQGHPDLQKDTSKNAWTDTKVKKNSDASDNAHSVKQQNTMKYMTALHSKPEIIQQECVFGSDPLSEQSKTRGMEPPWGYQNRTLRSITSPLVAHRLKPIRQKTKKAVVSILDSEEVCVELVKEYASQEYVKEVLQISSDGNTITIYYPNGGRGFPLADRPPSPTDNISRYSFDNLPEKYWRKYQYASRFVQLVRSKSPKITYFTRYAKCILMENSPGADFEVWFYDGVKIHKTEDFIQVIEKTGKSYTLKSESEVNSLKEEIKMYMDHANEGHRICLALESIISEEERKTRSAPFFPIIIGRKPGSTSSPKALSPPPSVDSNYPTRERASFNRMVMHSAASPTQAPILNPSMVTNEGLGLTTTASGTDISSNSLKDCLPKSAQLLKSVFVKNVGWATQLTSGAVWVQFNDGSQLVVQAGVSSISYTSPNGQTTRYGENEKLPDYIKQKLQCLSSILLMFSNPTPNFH
Briefly: affinity purification with mass spectrometry.

As for “CEP152 (endogenous) (from UniProt O94986 1-1710)”, the binding entry is on record as “binds”.

On to “DCAF1 (endogenous) (from UniProt Q9Y4B6 1-1507)”, for which the binding entry is given as “binds”.

As to “DCAF5 (endogenous) (from UniProt Q96JK2 1-942)”, the binding result is recorded as “binds”.

Regarding “DNA-damage binding protein 1 (DDB1) (from UniProt Q16531 1-1140)”, the binding entry is “binds”.

“β-TrCP (endogenous) (human (endogenous in HEK293T))”: the binding result is on record as “binds”.
